# Source: article PMC5249261
# The chains behind the UniProt entries cited, without tags or fusion partners.
# UniProt P53994: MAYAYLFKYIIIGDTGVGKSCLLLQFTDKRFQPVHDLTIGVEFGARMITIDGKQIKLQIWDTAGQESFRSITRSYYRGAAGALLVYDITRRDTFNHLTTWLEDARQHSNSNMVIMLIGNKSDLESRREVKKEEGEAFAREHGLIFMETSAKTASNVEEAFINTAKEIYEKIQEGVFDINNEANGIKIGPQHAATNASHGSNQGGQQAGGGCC
# UniProt P59279: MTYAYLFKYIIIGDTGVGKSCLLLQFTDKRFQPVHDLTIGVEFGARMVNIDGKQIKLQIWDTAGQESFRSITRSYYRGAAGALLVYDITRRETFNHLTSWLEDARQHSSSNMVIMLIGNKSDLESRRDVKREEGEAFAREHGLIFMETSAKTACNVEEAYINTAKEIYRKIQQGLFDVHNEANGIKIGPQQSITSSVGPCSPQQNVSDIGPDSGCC
# Results are given in words; binding and its absence hold for the method and conditions named. In cells and extracts the contact can be indirect. Some results given as binding are weak or reduced against the parent protein; the word gives no strength.
# Columns and labels:
# T7-Vps41 (mouse) = molecular target: T1, T7-Vps41 (mouse) (UniProt Q5KU39); assay: co-IP; COS-7 cells co-transfected with T7-Vps39 or T7-Vps41 and a FLAG-tagged Rab; lysed two days later; immunoprecipitated with anti-T7 antibody; detected by immunoblots
# T1 sequence: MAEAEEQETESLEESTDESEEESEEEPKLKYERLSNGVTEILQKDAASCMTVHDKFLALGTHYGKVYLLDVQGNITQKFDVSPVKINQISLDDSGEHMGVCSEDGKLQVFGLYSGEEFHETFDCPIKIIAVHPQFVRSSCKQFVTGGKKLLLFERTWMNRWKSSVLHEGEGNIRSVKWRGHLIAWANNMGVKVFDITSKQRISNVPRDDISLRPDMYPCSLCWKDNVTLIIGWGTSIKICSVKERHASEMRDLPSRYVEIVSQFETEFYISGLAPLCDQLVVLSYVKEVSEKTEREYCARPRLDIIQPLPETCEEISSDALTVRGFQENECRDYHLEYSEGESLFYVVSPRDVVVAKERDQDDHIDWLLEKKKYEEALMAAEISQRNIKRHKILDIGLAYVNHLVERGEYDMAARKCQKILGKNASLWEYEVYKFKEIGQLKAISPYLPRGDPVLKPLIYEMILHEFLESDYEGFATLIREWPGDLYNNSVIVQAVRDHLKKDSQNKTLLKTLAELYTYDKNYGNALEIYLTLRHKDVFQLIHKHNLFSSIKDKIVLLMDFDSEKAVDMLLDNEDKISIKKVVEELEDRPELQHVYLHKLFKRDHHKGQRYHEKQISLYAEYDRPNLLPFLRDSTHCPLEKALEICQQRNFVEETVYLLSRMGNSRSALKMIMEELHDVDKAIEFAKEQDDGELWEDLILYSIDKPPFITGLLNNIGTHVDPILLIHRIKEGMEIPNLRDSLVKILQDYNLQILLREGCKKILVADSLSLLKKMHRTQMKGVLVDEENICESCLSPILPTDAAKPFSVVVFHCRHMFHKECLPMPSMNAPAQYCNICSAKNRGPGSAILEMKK
# T7-Vps39 (mouse) = molecular target: T2, T7-Vps39 (mouse) (UniProt Q8R5L3); assay: as above
# T2 sequence: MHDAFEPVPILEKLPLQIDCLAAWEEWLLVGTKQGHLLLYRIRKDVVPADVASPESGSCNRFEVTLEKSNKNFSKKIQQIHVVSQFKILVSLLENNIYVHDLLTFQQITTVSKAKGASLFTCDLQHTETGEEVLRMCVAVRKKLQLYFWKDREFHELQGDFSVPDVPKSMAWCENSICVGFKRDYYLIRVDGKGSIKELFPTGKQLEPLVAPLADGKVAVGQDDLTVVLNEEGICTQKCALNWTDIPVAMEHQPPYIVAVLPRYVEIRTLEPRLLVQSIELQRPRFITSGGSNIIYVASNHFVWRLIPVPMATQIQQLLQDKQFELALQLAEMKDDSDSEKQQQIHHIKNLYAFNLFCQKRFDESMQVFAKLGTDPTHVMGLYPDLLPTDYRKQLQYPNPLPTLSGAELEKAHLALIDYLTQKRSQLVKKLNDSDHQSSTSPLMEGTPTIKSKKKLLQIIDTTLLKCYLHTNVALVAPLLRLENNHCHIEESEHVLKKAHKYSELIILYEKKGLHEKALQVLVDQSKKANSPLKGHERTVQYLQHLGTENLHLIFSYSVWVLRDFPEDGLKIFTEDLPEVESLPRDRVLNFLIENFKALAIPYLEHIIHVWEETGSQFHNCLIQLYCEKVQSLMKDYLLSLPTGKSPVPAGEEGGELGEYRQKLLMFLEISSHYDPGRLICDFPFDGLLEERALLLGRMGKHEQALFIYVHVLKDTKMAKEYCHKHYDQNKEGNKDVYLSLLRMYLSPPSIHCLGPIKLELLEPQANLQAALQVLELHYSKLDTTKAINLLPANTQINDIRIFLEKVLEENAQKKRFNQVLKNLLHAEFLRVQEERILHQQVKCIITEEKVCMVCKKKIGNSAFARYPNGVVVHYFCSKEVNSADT
binding (T7-Vps41 (mouse)),binding (T7-Vps39 (mouse)),Substance
binds,binds,FLAG-tagged Rab2A (from UniProt P53994 1-212)
binds,binds,FLAG-tagged Rab2B (from UniProt P59279 1-216)
